Laboratory results published in patent US7540883B2, “Reactive yellow dye composition” (Everlight USA, Inc., priority 2007, dated 2009).

Assay: Dyeing test (exhaust dyeing, printing, continuous dyeing) with appearance strength (K/S) measured by spectrophotometer
Settings: overall K/S value within visible light 300-700 nm

Compound: Nc1cc(N)c(S(=O)(=O)O)cc1N=Nc1ccc(S(=O)(=O)CCOS(=O)(=O)O)cc1 [Formula (1)]
- Appearance Strength (Table 2, single dye Formula (1) = 100%): 100%

Compound: Nc1c(N=Nc2ccc(S(=O)(=O)CCOS(=O)(=O)O)cc2)cc(S(=O)(=O)O)c(N)c1N=Nc1ccc(S(=O)(=O)CCOS(=O)(=O)O)cc1 [Formula (2)]
- Appearance Strength (Table 3, single dye Formula (2) = 100%): 100%

Compound: CC(=O)Nc1cc(N)c(S(=O)(=O)O)cc1N=Nc1ccc(S(=O)(=O)CCOS(=O)(=O)O)cc1 [Formula (3)]
- Appearance Strength (Table 4, single dye Formula (3) = 100%): 100%

Compound: NC(=O)Nc1cc(Nc2nc(Cl)nc(Nc3ccc(S(=O)(=O)CCOS(=O)(=O)O)cc3)n2)ccc1N=Nc1cc2c(S(=O)(=O)O)cc(S(=O)(=O)O)cc2cc1S(=O)(=O)O [Formula (4)]
- Appearance Strength (Table 5, single dye Formula (4) = 100%): 100%
